## Cleaved PARP in drug-treated melanoma cells

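Human melanoma cell lines in 1,536-well plates were treated with a single drug for 72 h, then fixed, stained and imaged. Each value is the cleaved-PARP-positive fraction of nuclei relative to DMSO-treated wells, in %, so that 100 equals the control and higher values mean more apoptosis. Concentrations were fixed for each drug; these are the higher of two levels. The file gives one value for each drug and line, without errors, so small differences may be noise. Basal and induced levels differ widely between cell lines.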 An unselected part of the screen is shown. A dash means that no value is listed here.

Compound	RVH-421	WM1745	SK-MEL-28	A375	LOX IMVI	LB2518-MEL	SK-MEL-5	UACC-257	SK-MEL-30	G-361	UACC-62	501mel	A101D	SK-MEL-2	WM451Lu
Cc1cc(Nc2cc(N3CCN(C)CC3)nc(Sc3ccc(NC(=O)C4CC4)cc3)n2)n[nH]1 at 30 nM	137	160	151	91.2	54.5	173	75.3	113	140	160	138	-	46.3	251	41.6
NC1(c2ccc(-c3nc4ccn5c(=O)[nH]nc5c4cc3-c3ccccc3)cc2)CCC1 at 2000 nM	126	145	106	91.8	90.1	196	322	34.0	160	132	339	-	96.7	90.5	105
COc1cc2c(Oc3ccc4[nH]c(C)cc4c3F)ncnc2cc1OCCCN1CCCC1 at 2000 nM	104	175	49.6	70.3	97.9	45.8	43.6	67.4	85.5	101	52.3	-	20.5	78.8	167
CC1(C)NC(=O)N(c2ccc([N+](=O)[O-])c(C(F)(F)F)c2)C1=O at 5000 nM	100	52.3	68.8	50.3	83.7	71.5	25.1	177	68.7	31.7	73.8	-	113	126	43.7
CCCS(=O)(=O)Nc1ccc(F)c(C(=O)c2c[nH]c3ncc(Cl)cc23)c1F at 400 nM	66.7	164	33.1	68.7	83.9	110	130	75.2	60.4	340	256	-	103	151	58.7
CS(=O)(=O)c1ccc(C(=O)Nc2ccc(Cl)c(-c3ccccn3)c2)c(Cl)c1 at 5000 nM	15.7	195	51.6	120	63.9	100	88.4	74.9	193	107	92.4	-	66.3	81.3	68.9
Cc1ccc(NC(=O)c2cccc(N(C)C)c2)cc1NC(=O)c1ccc(O)cc1 at 10000 nM	206	114	193	110	76.5	113	96.7	165	91.7	211	135	-	264	93.7	147
CNC(=O)c1cc(Oc2ccc(NC(=O)Nc3ccc(Cl)c(C(F)(F)F)c3)cc2)ccn1 at 2000 nM	136	91.7	129	204	52.7	71.8	186	94.4	93.2	54.1	103	-	76.1	155	63.9
CC(C)(C)c1cnc(CSc2cnc(NC(=O)C3CCNCC3)s2)o1 at 50 nM	53.9	136	225	79.5	107	121	358	33.4	89.2	84.2	152	-	313	151	51.8
Cc1cc([N+](=O)[O-])ccc1NS(=O)(=O)c1cc(Cl)ccc1Cl at 5000 nM	84.2	-	188	195	276	89.8	55.7	171	99.3	1090	228	128	78.5	89.1	141
CN(NC(=O)CC(=O)NN(C)C(=S)c1ccccc1)C(=S)c1ccccc1 at 30 nM	40.7	424	136	100	30.2	1320	209	217	70.5	328	140	-	269	30.6	25.9
Nc1ccn([C@@H]2O[C@H](CO)[C@@H](O)C2(F)F)c(=O)n1 at 2 nM	366	249	25.9	62.2	280	238	389	143	125	366	152	-	108	125	282
O=C(CCCCCCC(=O)Nc1ccccc1)NO at 400 nM	34.4	78.8	228	42.8	49.6	215	268	173	159	47.9	117	-	146	47.3	72.2
NC(=O)Nc1cc(-c2cccc(F)c2)sc1C(=O)N[C@H]1CCCNC1 at 100 nM	33.8	101	149	143	136	242	151	60.5	149	106	118	-	126	60.6	359
N.N.[Cl][Pt][Cl] at 8000 nM	62.1	98.8	38.2	232	29.5	96.9	59.6	115	80.5	50.7	140	-	122	68.0	157
Cn1c(=O)n(-c2ccc(C(C)(C)C#N)cc2)c2c3cc(-c4cnc5ccccc5c4)ccc3ncc21 at 20 nM	120	112	49.3	99.0	125	354	302	72.6	103	208	252	-	243	103	100
NCC(=O)Nc1ccc(-n2nc(C(F)(F)F)cc2-c2ccc3c(ccc4ccccc43)c2)cc1 at 5000 nM	393	89.4	688	79.1	172	118	305	46.9	413	141	169	-	213	599	58.7
CC(C)C[C@H](NC(=O)[C@H](Cc1ccccc1)NC(=O)c1cnccn1)B(O)O at 5 nM	1940	679	109	65.8	224	3990	2150	73.8	734	8730	269	-	236	143	1460
Nc1cccc2c1CN(C1CCC(=O)NC1=O)C2=O (configuration not stated) at 5000 nM	121	120	108	93.7	104	165	144	93.7	110	77.7	12.7	-	25.3	113	87.2
CS(=O)(=O)CCNCc1ccc(-c2ccc3ncnc(Nc4ccc(OCc5cccc(F)c5)c(Cl)c4)c3c2)o1 at 4000 nM	84.8	88.0	123	50.3	67.2	33.5	782	139	41.7	65.2	364	-	142	155	43.5
Nc1ncn([C@H]2C[C@H](O)[C@@H](CO)O2)c(=O)n1 at 500 nM	64.9	89.0	257	278	152	231	136	142	1250	48.8	111	-	371	52.3	104
Nc1nc(F)nc2c1ncn2[C@@H]1O[C@H](CO)[C@@H](O)[C@@H]1O at 1000 nM	105	93.9	672	480	59.9	62.8	3750	4830	1890	185	145	-	74.6	1530	71.3
CC(C)CCN1c2nc(Nc3cc(F)c(O)c(F)c3)ncc2N(C)C(=O)C1C (configuration not stated) at 1000 nM	101	-	157	137	157	97.2	107	31.5	114	775	89.5	37.2	465	78.0	82.4
CC(=O)c1c(C)c2cnc(Nc3ccc(N4CCNCC4)cn3)nc2n(C2CCCC2)c1=O at 200 nM	122	154	144	89.2	123	123	205	84.8	58.5	144	207	-	196	39.3	60.4
CN(C)S(=O)(=O)c1ccc2c(c1)/C(=C/c1cc3c([nH]1)CCCC3)C(=O)N2 at 2000 nM	108	179	107	26.1	74.0	219	49.4	116	92.6	259	96.9	-	59.2	108	54.5
Cc1cc(N2CCOCC2)cc2[nH]c(-c3c(NC[C@@H](O)c4cccc(Cl)c4)cc[nH]c3=O)nc12 at 1000 nM	110	140	168	101	70.3	53.9	218	32.1	75.0	121	61.3	-	44.0	97.5	37.4
CCc1ccc(CCOc2ccc(CC3SC(=O)NC3=O)cc2)nc1 (configuration not stated) at 10000 nM	152	-	104	57.1	149	126	67.3	131	212	141	178	156	105	47.0	299
Cn1nnc2c(C(N)=O)ncn2c1=O at 10000 nM	40.3	85.7	218	111	163	73.3	63.1	76.2	327	134	318	-	105	66.1	88.2
COc1ccc(-c2ccc3c(N4CCOCC4)nc(N4C[C@@H](C)O[C@@H](C)C4)nc3n2)cc1CO at 100 nM	131	-	36.0	69.4	84.3	111	34.6	49.1	187	120	123	131	54.0	83.2	76.8
C[C@]1(O)C[C@@H](c2nc(-c3ccc4ccc(-c5ccccc5)nc4c3)c3c(N)nccn32)C1 at 2000 nM	37.3	124	269	145	77.3	70.5	175	48.2	134	101	174	-	156	79.9	97.3
N#CC[C@H](C1CCCC1)n1cc(-c2ncnc3[nH]ccc23)cn1 at 5000 nM	109	119	18.5	98.3	137	56.1	218	391	119	172	149	-	70.1	196	63.6
CCN(CC)CCNC(=O)c1c(C)[nH]c(/C=C2\C(=O)Nc3ccc(F)cc32)c1C at 2000 nM	113	231	202	89.2	138	186	97.9	78.5	127	150	257	-	77.3	89.4	109
C[C@]1(c2nc3c(C(N)=O)cccc3[nH]2)CCCN1 at 7000 nM	60.2	85.6	55.3	143	156	76.1	145	88.0	132	93.1	154	-	71.7	137	102
Cn1c(Nc2ccc(C(F)(F)F)cc2)nc2cc(Oc3ccnc(-c4ncc(C(F)(F)F)[nH]4)c3)ccc21 at 400 nM	235	196	281	154	64.2	248	1920	271	115	971	355	-	117	175	250
OCCn1cc(-c2cnc3nnn(Cc4ccc5ncccc5c4)c3n2)cn1 at 5000 nM	84.5	188	21.0	101	43.2	123	101	61.2	86.0	99.6	51.9	-	39.0	25.4	85.2
C/C(O)=C(\C#N)C(=O)Nc1cc(Br)ccc1Br at 10000 nM	85.5	-	194	71.3	26.9	108	215	30.0	97.3	144	149	34.7	97.8	107	66.9
CCCCCCCCCCCCCCCCCCOP(=O)([O-])OC1CC[N+](C)(C)CC1 at 2000 nM	124	76.7	87.8	108	47.7	58.9	40.1	34.7	57.5	102	101	-	246	56.6	74.8
CN(c1ncccc1CNc1nc(Nc2ccc3c(c2)CC(=O)N3)ncc1C(F)(F)F)S(C)(=O)=O at 400 nM	151	151	219	189	182	65.5	126	159	130	163	140	-	90.7	147	308
C[As](C)SC[C@H](NC(=O)CC[C@H](N)C(=O)O)C(=O)NCC(=O)O at 2000 nM	62.5	91.6	274	65.5	63.8	111	178	101	213	136	118	-	36.7	64.7	87.8

Values as published with doi:10.1371/journal.pone.0140310, rounded.